{"sequences": {"note": "Protein sequences, listed by entry. Tags and fused reporters are not part of them.", "UniProt Q16877": "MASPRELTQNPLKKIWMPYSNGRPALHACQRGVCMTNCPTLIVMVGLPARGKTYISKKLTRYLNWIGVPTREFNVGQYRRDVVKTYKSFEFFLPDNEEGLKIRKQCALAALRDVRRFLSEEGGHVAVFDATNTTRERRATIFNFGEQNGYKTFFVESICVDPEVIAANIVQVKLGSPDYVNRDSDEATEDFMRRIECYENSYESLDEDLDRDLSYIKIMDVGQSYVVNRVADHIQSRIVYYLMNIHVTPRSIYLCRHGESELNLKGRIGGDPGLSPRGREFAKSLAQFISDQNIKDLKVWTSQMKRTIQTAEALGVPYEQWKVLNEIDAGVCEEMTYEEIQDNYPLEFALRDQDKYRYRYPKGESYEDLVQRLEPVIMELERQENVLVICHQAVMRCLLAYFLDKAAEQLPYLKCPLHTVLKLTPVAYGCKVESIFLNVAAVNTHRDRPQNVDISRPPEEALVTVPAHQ", "UniProt Q9P1W9": "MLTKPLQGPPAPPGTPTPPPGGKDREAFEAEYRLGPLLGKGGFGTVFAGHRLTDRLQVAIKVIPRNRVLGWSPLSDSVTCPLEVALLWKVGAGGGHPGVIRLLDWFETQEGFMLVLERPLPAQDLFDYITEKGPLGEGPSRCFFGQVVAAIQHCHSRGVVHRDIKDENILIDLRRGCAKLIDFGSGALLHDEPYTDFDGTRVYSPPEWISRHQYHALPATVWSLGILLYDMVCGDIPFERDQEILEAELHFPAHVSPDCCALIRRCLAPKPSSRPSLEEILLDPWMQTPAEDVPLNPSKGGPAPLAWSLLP"}, "source": "paper PMC9477845", "key": {"GST-PFKFB4": {"target": "GST-PFKFB4 (UniProt Q16877)", "experiment": "pull-down; GST or GST-PFKFB4 as bait; in vitro binding; procedure as in ref. 29"}, "[1]": {"target": "HA-PFKFB4 (6-phosphofructose-2-kinase/fructose-2,6-bisphosphatase 4) (UniProt Q16877)", "experiment": "co-IP; 293T cells, transfected; lysate incubated overnight at 4 °C with magnetic beads carrying antibody (anti-HA, Fig. 2B; anti-Flag, Fig. 2C); Western blot"}, "[2]": {"target": "PFKFB4 (6-phosphofructose-2-kinase/fructose-2,6-bisphosphatase 4), endogenous (human (endogenous in ESC endometriosis stromal cells)) (UniProt Q16877)", "experiment": "co-IP; ESC cells; lysate incubated overnight at 4 °C with magnetic beads carrying antibody (anti-PFKFB4, Fig. 2D; anti-PIM2, Fig. 2E); Western blot"}}, "note": "These are yes or no findings as the source states them, for the method shown. In cells and extracts the contact can be indirect. Some results given as binding are weak or reduced against the parent protein; the word gives no strength."}
{"substance": "PIM2 used in the GST pull-down (from UniProt Q9P1W9 1-311)", "values": [{"measurement": "binding", "setting": "GST-PFKFB4", "value": "binds"}]}
{"substance": "Flag-PIM2 (proviral insertion in murine lymphomas 2) (from UniProt Q9P1W9 1-311)", "values": [{"measurement": "binding", "setting": "[1]", "value": "binds"}]}
{"substance": "PIM2 (proviral insertion in murine lymphomas 2), endogenous (from UniProt Q9P1W9 1-311)", "values": [{"measurement": "binding", "setting": "[2]", "value": "binds"}]}
